Assay results as given in PMC11574045, “A cofactor-induced repressive type of transcription factor condensation can be induced by synthetic peptides to suppress tumorigenesis” (The EMBO Journal, 2024).
These are yes or no findings as the source states them, for the method shown. In cells and extracts the contact can be indirect. These calls come from enrichment with a bait or labelling near it, and not all partners need be listed.

The chains behind the UniProt entries cited, without tags or fusion partners.
UniProt Q15561: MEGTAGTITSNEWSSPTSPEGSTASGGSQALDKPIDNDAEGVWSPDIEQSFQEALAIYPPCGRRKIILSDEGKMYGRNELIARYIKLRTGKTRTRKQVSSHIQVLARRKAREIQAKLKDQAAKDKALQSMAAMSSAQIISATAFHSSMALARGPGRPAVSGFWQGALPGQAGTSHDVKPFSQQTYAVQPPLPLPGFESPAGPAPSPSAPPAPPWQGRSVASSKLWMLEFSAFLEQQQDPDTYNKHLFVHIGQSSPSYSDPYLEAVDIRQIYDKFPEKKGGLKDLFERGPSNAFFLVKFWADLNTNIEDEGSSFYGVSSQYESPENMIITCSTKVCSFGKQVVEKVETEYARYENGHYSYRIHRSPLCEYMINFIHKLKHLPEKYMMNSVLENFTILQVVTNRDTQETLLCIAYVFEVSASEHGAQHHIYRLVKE
UniProt O95751: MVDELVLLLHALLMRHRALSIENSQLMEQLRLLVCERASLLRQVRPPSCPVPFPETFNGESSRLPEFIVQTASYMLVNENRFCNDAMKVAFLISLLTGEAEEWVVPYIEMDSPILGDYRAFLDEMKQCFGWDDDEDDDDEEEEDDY
UniProt Q9GZV5: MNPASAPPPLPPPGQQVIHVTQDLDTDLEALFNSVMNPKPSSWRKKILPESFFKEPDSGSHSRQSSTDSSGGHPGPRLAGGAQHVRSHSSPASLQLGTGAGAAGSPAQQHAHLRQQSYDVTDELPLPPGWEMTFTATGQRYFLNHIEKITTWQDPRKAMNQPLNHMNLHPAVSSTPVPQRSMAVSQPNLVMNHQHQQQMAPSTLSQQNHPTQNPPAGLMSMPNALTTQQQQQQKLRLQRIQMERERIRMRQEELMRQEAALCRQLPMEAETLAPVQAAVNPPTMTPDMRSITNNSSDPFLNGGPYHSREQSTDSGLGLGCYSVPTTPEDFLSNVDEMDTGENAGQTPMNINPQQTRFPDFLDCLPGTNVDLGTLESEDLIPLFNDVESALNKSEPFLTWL
UniProt P25490: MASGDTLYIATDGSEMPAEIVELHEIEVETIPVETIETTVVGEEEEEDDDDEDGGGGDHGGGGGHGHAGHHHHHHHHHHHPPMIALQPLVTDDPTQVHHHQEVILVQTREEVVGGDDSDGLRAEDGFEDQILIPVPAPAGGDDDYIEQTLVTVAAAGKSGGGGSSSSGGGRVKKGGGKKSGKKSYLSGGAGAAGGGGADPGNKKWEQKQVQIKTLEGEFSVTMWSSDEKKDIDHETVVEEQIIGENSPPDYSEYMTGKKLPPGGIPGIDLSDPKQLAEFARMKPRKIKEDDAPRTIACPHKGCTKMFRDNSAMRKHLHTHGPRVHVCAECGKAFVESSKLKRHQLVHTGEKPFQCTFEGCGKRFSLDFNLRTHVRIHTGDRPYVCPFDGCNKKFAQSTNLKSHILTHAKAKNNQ

Biological target: BirA-fused TEAD4 (human) (UniProt Q15561)
Experiment: proximity labelling; BioID: TEAD4-BirA in HEK293FT, in triplicate; biotin 500 μM; NETN lysis with micrococcal nuclease; streptavidin beads; label-free quantitative mass spectrometry

**Q.** Which binding does the source give for LDOC1 (from UniProt O95751 1-146) here?
**A.** Its binding is “binds”.

**Q.** How did the binding turn out when TAZ (from UniProt Q9GZV5 1-400) was run?
**A.** The binding was “binds”.

**Q.** Which binding does the source give for YY1 (from UniProt P25490 1-414) here?
**A.** The binding was “binds”.
